Publication PMC10657414, “LncRNA INHEG promotes glioma stem cell maintenance and tumorigenicity through regulating rRNA 2’-O-methylation” (Nature Communications, 2023)
Where two headings read alike, the source gives them in different places. These are yes or no findings as the source states them, for the method shown. In cells and extracts the contact can be indirect. Some binding calls cover weakened binding; strength is not graded here. Blank lines part the entries; values can stand above or below the molecule they belong to.

Amino acid sequences for entries named in this document (tags omitted).
UniProt Q92804: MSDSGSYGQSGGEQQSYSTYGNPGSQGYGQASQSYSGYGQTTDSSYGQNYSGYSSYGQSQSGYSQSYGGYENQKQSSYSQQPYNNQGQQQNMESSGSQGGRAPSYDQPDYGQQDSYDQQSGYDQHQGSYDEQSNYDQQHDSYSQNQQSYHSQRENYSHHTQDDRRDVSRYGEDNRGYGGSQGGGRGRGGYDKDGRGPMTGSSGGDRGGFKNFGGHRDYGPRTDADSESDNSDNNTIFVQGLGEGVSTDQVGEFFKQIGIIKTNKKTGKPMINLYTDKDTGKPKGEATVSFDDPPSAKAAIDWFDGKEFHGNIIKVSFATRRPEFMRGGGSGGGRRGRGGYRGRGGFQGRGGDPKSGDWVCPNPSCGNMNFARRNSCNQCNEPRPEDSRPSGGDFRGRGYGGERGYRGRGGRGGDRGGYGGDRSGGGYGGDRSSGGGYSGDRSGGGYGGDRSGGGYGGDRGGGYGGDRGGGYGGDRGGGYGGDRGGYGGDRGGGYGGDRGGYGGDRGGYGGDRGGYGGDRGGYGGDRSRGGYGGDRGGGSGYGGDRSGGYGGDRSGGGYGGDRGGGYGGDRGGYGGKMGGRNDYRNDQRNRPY
UniProt P63279: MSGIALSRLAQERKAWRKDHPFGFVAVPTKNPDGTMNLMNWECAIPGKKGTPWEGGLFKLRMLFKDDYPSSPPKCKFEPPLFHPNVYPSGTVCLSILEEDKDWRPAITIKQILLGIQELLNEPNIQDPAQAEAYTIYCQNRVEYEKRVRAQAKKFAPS

Assays:
[1] = target: TAF15, endogenous in glioma cells (human (endogenous in U87-MG and U251-MG)) (UniProt Q92804); experiment: co-IP; TAF15 antibody (by the legend), whole-cell lysates of U87-MG and U251-MG, endogenous proteins; also in cells with dCas9-VP64 INHEG overexpression or a non-targeting sgRNA
[2] = target: TAF15, endogenous in glioma cells (human (endogenous in U87-MG and U251-MG)) (UniProt Q92804); experiment: as above; remark: listed apart in the source
[3] = target: TAF15, ectopically expressed in 293T cells (human) (UniProt Q92804); experiment: co-IP; TAF15 and NOP58 ectopically expressed in 293T; also with ectopic INHEG and with RNase A treatment of the lysates
[4] = target: T1, NOP58 (NOP58 Ribonucleoprotein), endogenous in glioma cells (human (endogenous in U87-MG and U251-MG)) (UniProt Q9Y2X3); experiment: co-IP; anti-NOP58 antibody, whole-cell lysates of U251-MG with KRAB-dCas9 INHEG knockdown, dCas9-VP64 INHEG overexpression or a non-targeting sgRNA; blot for NHP2L1
T1 sequence: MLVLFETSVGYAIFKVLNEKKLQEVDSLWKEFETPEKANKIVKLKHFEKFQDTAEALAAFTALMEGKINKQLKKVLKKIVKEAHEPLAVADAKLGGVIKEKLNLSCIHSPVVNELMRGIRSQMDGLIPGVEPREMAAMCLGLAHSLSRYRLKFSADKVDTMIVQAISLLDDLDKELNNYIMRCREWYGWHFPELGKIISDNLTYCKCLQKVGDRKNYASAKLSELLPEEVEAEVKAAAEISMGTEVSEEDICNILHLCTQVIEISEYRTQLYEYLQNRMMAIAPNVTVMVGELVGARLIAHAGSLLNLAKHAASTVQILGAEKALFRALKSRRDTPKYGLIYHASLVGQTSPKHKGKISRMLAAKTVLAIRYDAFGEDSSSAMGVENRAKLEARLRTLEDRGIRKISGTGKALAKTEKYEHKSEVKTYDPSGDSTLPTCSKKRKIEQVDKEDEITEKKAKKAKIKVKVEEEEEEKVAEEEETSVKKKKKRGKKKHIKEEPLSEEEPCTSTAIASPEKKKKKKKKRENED

binding [1]: binds
Molecule: UBC9 (SUMO2 E2 ligase), endogenous in glioma cells (from UniProt P63279 1-158) (enzyme)

binding [2]: binds
B1: NOP58 (NOP58 Ribonucleoprotein), endogenous in glioma cells (protein, UniProt Q9Y2X3 1-529)
chain: MLVLFETSVGYAIFKVLNEKKLQEVDSLWKEFETPEKANKIVKLKHFEKFQDTAEALAAFTALMEGKINKQLKKVLKKIVKEAHEPLAVADAKLGGVIKEKLNLSCIHSPVVNELMRGIRSQMDGLIPGVEPREMAAMCLGLAHSLSRYRLKFSADKVDTMIVQAISLLDDLDKELNNYIMRCREWYGWHFPELGKIISDNLTYCKCLQKVGDRKNYASAKLSELLPEEVEAEVKAAAEISMGTEVSEEDICNILHLCTQVIEISEYRTQLYEYLQNRMMAIAPNVTVMVGELVGARLIAHAGSLLNLAKHAASTVQILGAEKALFRALKSRRDTPKYGLIYHASLVGQTSPKHKGKISRMLAAKTVLAIRYDAFGEDSSSAMGVENRAKLEARLRTLEDRGIRKISGTGKALAKTEKYEHKSEVKTYDPSGDSTLPTCSKKRKIEQVDKEDEITEKKAKKAKIKVKVEEEEEEKVAEEEETSVKKKKKRGKKKHIKEEPLSEEEPCTSTAIASPEKKKKKKKKRENED

binding [3]: binds
B2: NOP58, ectopically expressed in 293T cells (protein, UniProt Q9Y2X3 1-529)
chain: MLVLFETSVGYAIFKVLNEKKLQEVDSLWKEFETPEKANKIVKLKHFEKFQDTAEALAAFTALMEGKINKQLKKVLKKIVKEAHEPLAVADAKLGGVIKEKLNLSCIHSPVVNELMRGIRSQMDGLIPGVEPREMAAMCLGLAHSLSRYRLKFSADKVDTMIVQAISLLDDLDKELNNYIMRCREWYGWHFPELGKIISDNLTYCKCLQKVGDRKNYASAKLSELLPEEVEAEVKAAAEISMGTEVSEEDICNILHLCTQVIEISEYRTQLYEYLQNRMMAIAPNVTVMVGELVGARLIAHAGSLLNLAKHAASTVQILGAEKALFRALKSRRDTPKYGLIYHASLVGQTSPKHKGKISRMLAAKTVLAIRYDAFGEDSSSAMGVENRAKLEARLRTLEDRGIRKISGTGKALAKTEKYEHKSEVKTYDPSGDSTLPTCSKKRKIEQVDKEDEITEKKAKKAKIKVKVEEEEEEKVAEEEETSVKKKKKRGKKKHIKEEPLSEEEPCTSTAIASPEKKKKKKKKRENED

binding [4]: binds
B3: NHP2L1, endogenous in U251-MG cells (protein, UniProt P55769 1-128)
chain: MTEADVNPKAYPLADAHLTKKLLDLVQQSCNYKQLRKGANEATKTLNRGISEFIVMAADAEPLEIILHLPLLCEDKNVPYVFVRSKQALGRACGVSRPVIACSVTIKEGSQLKQQIQSIQQSIERLLV
